Test results taken from patent US5385888A (The Regents of the University of California, priority 1993, dated 1995).
Some peptides are written in HELM: one residue between dots, names in brackets for other building blocks, links after the first $.

Assay: peptide made by a vendor
Settings: whole synthesis, 214 and 278 nm

PEPTIDE1{E.R.E.T.Q.I.A.K.G.N.E.Q.S.F.R.V.D.L.R.T.L.L.R.Y.Y}$$$$V2.0
final HPLC purity: better than 97%
